PubChem BioAssay AID504786 – Drosophila RNAi Screening Center – 2011
The screen tested about 21,000 reagents; below is an unselected part of those with a known target gene and a result. 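Primary screen; positive scores mean lost reporter signal, so the sign may be inverted from the usual convention.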 A plus sign joins genes that one reagent is predicted to hit.

Screen: 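Positive regulators of HIF-driven reporter output in Drosophila cells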 (primary screen)
Cell system: Drosophila S2 cells with a stable HIF luciferase reporter
Reagents: long dsRNA against Drosophila genes, about 0.2 µg dsRNA per well of a 384-well plate
Duration: three days of knock-down, then 20 h of DFO before reading
Challenge: desferrioxamine (DFO) at 100 µM, an iron chelator that mimics hypoxia, for 20 h
Detection: 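Firefly luciferase driven by the mouse ldh-a hypoxia-response element, measured after 20 h of 100 µM DFO; z-scores per plate, higher means more signal lost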
Scale: z-score: higher = stronger loss of HIF reporter signal

gene | amplicon | z-score, replicate 1 | z-score, replicate 2 | z-score, replicate 3 | z-score, replicate 4
Smyd4-3 (SET and MYND domain containing, class 4, member 3) | DRSC07041 | -0.2 | -0.5 | – | –
Lcp2 (Larval cuticle protein 2) | DRSC07456 | -0.2 | -0.3 | – | –
CG9926 | DRSC16582 | -0.2 | -0.2 | – | –
CG12020 | DRSC08226 | -0.2 | -0.3 | – | –
gogo (golden goal) | DRSC10070 | -0.2 | -0.3 | – | –
gogo (golden goal) | DRSC10071 | -0.2 | 0 | – | –
SCaMC | DRSC10293 | -0.1 | -0.4 | – | –
SCaMC | DRSC10415 | -0.2 | -0.6 | – | –
CG17564 | DRSC02626 | -0.4 | 0.2 | – | –
Rbpn-5 (Rabaptin-5) | DRSC04440 | -0.3 | -0.6 | – | –
AhcyL1 (Adenosylhomocysteinase like 1) | DRSC08647 | -0.3 | -0.6 | – | –
CG12842 (retired record) | DRSC06188 | -0.2 | 0 | – | –
CG15710 | DRSC06581 | -0.3 | -1 | – | –
CR31822 (pseudo) | DRSC01510 | -0.5 | -0.4 | – | –
CG32679 | DRSC17644 | -0.2 | -0.3 | – | –
RNaseZ (Ribonuclease Z) | DRSC06845 | -0.2 | 0.1 | – | –
CG9702 | DRSC16540 | -0.3 | -0.6 | – | –
Ced-12 | DRSC02840 | -0.2 | 0.1 | – | –
CG2006 | DRSC15412 | -0.4 | -0.4 | – | –
CG7016 | DRSC16174 | -0.4 | 1.2 | – | –
CG15036 | DRSC17968 | 0.5 | 0.6 | – | –
Jig | DRSC14974 | -0.4 | -0.6 | – | –
CG9062 | DRSC07327 | 0 | 0 | – | –
CG8197 | DRSC07105 | -0.4 | -0.6 | – | –
CG14762 | DRSC05073 | -0.1 | -0.1 | – | –
CG14762 | DRSC06496 | -0.3 | -0.3 | – | –
CrebB (Cyclic-AMP response element binding protein B) | DRSC20232 | -0.3 | -0.8 | – | –
Uro (Urate oxidase) | DRSC03469 | -0.1 | 0.1 | – | –
CG42562 | DRSC06453 | -0.1 | -0.3 | – | –
CG4563 | DRSC04474 | -0.3 | 0.5 | – | –
Sidpn (similar to Deadpan) | DRSC02056 | -0.3 | -0.5 | – | –
brn (brainiac) | DRSC18746 | -0.2 | -0.2 | – | –
CG34197 (retired record) | DRSC05791 | -0.2 | -0.2 | – | –
ftz (fushi tarazu) | DRSC12626 | -0.1 | -0.2 | – | –
GC2 | DRSC14476 | -0.1 | 1 | – | –
CG42245 + MEP-1 | DRSC07993 | -0.3 | -0.2 | – | –
CG42245 + MEP-1 | DRSC08274 | -0.1 | 0.7 | – | –
Rpn8 (Regulatory particle non-ATPase 8) | DRSC04624 | 5.6 | 6.5 | – | –
EndoA (Endophilin A) | DRSC14775 | -0.3 | 0 | – | –
CG13631 | DRSC14632 | -0.3 | -0.4 | – | –
Peritrophin-15a | DRSC02636 | -0.2 | -0.5 | – | –
rst (roughest) | DRSC17243 | -0.4 | -0.2 | – | –
rst (roughest) | DRSC18828 | -0.2 | -0.8 | – | –
pncr004:X (retired record) | DRSC19295 | -0.2 | -0.5 | – | –
CG40485 | DRSC20624 | -0.5 | -0.8 | – | –
gish (gilgamesh) | DRSC16154 | -0.4 | -1.1 | – | –
CG15461 | DRSC20532 | -0.3 | -0.4 | – | –
CG5913 | DRSC15916 | 0 | -0.4 | – | –
Polr2M (RNA polymerase II subunit M) | DRSC15513 | 0.2 | -0.3 | – | –
RhoGEF4 (Rho guanine nucleotide exchange factor 4) | DRSC11011 | -0.3 | -0.3 | – | –
CR12628 + Mgstl | DRSC03702 | -0.2 | -0.5 | -0.4 | -0.3
CR12628 + Mgstl | DRSC20568 | -0.3 | 0.3 | – | –
CG31741 | DRSC02887 | -0.1 | -0.1 | – | –
CG9346 | DRSC04542 | 0.9 | 1.1 | – | –
Zip99C (Zinc/iron regulated transporter-related protein 99C) | DRSC16320 | -0.3 | -0.5 | – | –
Vajk1 | DRSC01882 | -0.2 | -0.4 | – | –
CG8032 | DRSC16365 | -0.3 | -0.4 | – | –
CG14625 | DRSC18633 | -0.4 | -0.2 | – | –
Ugalt (UDP-galactose transporter) | DRSC18467 | -0.3 | -0.6 | – | –
nAChRalpha5 (nicotinic Acetylcholine Receptor alpha5) | DRSC01360 | 0.3 | -0.6 | – | –
nAChRalpha5 (nicotinic Acetylcholine Receptor alpha5) | DRSC01946 | -0.3 | 0 | – | –
nAChRalpha5 (nicotinic Acetylcholine Receptor alpha5) | DRSC01947 | -0.2 | -0.3 | – | –
Bcat (Branched chain amino acid transaminase) | DRSC19756 | -0.2 | -0.5 | – | –
CG6749 | DRSC10704 | -0.3 | -0.4 | – | –
CG14306 (retired record) | DRSC14785 | -0.9 | -0.5 | – | –
CG31125 | DRSC13684 | -0.3 | -0.3 | – | –
Ir94h (Ionotropic receptor 94h) | DRSC15232 | -0.4 | -0.4 | – | –
CG15482 | DRSC02492 | -0.2 | -0.4 | – | –
hyd (hyperplastic discs) | DRSC16971 | 0.9 | 0.6 | – | –
CG8916 | DRSC20120 | -0.4 | -0.4 | – | –
CG13186 | DRSC06311 | -0.3 | -0.3 | – | –
CG6527 | DRSC10659 | -0.2 | -0.1 | – | –
CG17648 | DRSC00508 | 0.1 | -0.2 | – | –
CG31510 | DRSC14182 | 0.1 | -0.4 | – | –
Or94a (Odorant receptor 94a) | DRSC16772 | -0.1 | 0.1 | – | –
CG6310 | DRSC10619 | -0.2 | -0.1 | – | –
peg (pegasus) | DRSC15216 | -0.5 | -0.2 | – | –
CG9331 | DRSC03206 | 0.1 | 0 | – | –
Syt7 (Synaptotagmin 7) | DRSC17130 | -0.4 | -0.7 | – | –
Syt7 (Synaptotagmin 7) | DRSC17159 | -0.4 | -0.5 | – | –
InR (Insulin-like receptor) | DRSC16717 | 0.2 | 0.7 | – | –
CG32483 | DRSC07902 | -0.2 | 0 | – | –
CG11241 | DRSC11641 | -0.3 | -0.2 | -0.9 | -0.1
Vps45 (Vacuolar protein sorting 45) | DRSC16398 | -0.4 | 0.1 | – | –
CG14191 | DRSC19546 | -0.2 | 0.3 | – | –
CG9555 | DRSC03264 | -0.1 | 0.3 | – | –
Wdr37 (WD repeat domain 37) | DRSC14500 | -0.1 | -0.2 | – | –
CG10874 | DRSC00297 | 0.2 | 0 | – | –
CG33773 | DRSC14032 | -0.5 | 0 | – | –
CG8192 | DRSC07101 | -0.2 | -0.4 | – | –
IntS2 (Integrator 2) | DRSC20094 | 0.8 | 0.5 | – | –
CG42354 + CG42353 | DRSC20172 | 0.1 | 0.8 | – | –
Ndc1 (Nuclear division cycle 1) | DRSC15895 | 0 | 0.5 | – | –
Pkc98E (Protein C kinase 98E) | DRSC16791 | -0.3 | 0.5 | – | –
CG1137 | DRSC12529 | -0.3 | -0.2 | – | –
CG42808 + CG42807 | DRSC06370 | -0.3 | 0.2 | – | –
CG42808 + CG42807 | DRSC06966 | -0.4 | -0.5 | – | –
CG18577 | DRSC15352 | -0.1 | 0.5 | – | –
CG1075 (retired record) | DRSC12144 | -0.3 | -0.2 | – | –
CG30196 | DRSC04156 | -0.2 | -0.2 | – | –
Su(dx) (Suppressor of deltex) | DRSC00791 | -0.3 | -0.2 | – | –
CG14212 | DRSC19568 | -0.2 | -0.3 | – | –
Rubicon | DRSC17889 | -0.4 | -0.6 | – | –
exp (expansion) | DRSC06313 | 1.2 | 1.4 | – | –
fs(1)M3 (female sterile (1) M3) | DRSC18381 | -0.3 | -0.7 | – | –
CG13699 | DRSC10048 | -0.2 | -0.1 | – | –

6 consecutive entries already listed:
gene | amplicon | z-score, replicate 1 | z-score, replicate 2 | z-score, replicate 3 | z-score, replicate 4
peg (pegasus) | DRSC15216 | -0.5 | -0.2 | – | –
CG9331 | DRSC03206 | 0.1 | 0 | – | –
Syt7 (Synaptotagmin 7) | DRSC17130 | -0.4 | -0.7 | – | –
Syt7 (Synaptotagmin 7) | DRSC17159 | -0.4 | -0.5 | – | –
InR (Insulin-like receptor) | DRSC16717 | 0.2 | 0.7 | – | –
CG32483 | DRSC07902 | -0.2 | 0 | – | –
